## Primary screen of a compound library

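Phenotypic screen: M. tuberculosis growth, cholesterol and DPPC medium, 4 days; the read-out is not stated. Concentration: 50 µM. Higher reads as more growth inhibition (inferred: compounds with an IC50 in retests scored well above the rest). About 69,000 compounds were tested under these conditions; 0.54% (about 370) showed 50% or more at least once.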

Values are the deposited “Percent Effect”, in %. The controls that fix the scale are not given in the record; negative values are as filed. Compounds were drawn at random from those tested, without regard to their results. Two or more numbers in one place are separate tests of the same structure; such repeats can differ widely.

compound,percent effect
COc1c(Br)c(C(=O)NC2CC2)nn1C,-15.53
Cc1cc(Br)oc1C(=O)N1CCCN(CC(N)=O)CC1,-14.04 & -0.2926
Cc1nnc(SCCNC(=O)Cn2cnc3ccccc3c2=O)s1,-8.539 & -9.241
CCOCCN1CCN(C(C)C(=O)Nc2ccnn2C(C)C)CC1 (centres unmarked),2.55
O=C(O)C(F)(F)F.O=C(O)C(F)(F)F.[H][C@@]12COC[C@]1(CNC(=O)N1CCCC1)CN(Cc1cccc(C)n1)C2,-10.04
NC(=O)c1cccc(CN2CCc3c(ncn3C3CC3)C2)c1,-24.82
COCc1ccc(C(=O)N2CCc3c(ncnc3N3CCOCC3)C2)o1,-6.981
COc1c(CNC2CCSc3ccc(F)cc32)c(C)nn1C.Cl (centres unmarked),14.68
CN(C)c1cc(NCc2cnc3n2CCN(CC2CC2)CC3)ncn1.O=C(O)C(F)(F)F,6.7
N#Cc1ccc(CCC(=O)N2CCC(CN3CCOCC3)CC2)cc1,10.95
Cc1nnc2ccc(NCC3(N4CCCCC4)CCOCC3)nn12,25.53
CSCC(=O)N1CCCC(c2cc(C)[nH]n2)C1 (centres unmarked),18.74
CN1CCN(C(=O)C2CCN(c3cccnn3)CC2)CC1,-9.694
O=C(O)C(F)(F)F.[H][C@@]12CCN(Cc3ccco3)C[C@]1([H])[C@@H](CNC(=O)c1ccsc1)OC2,-8.897
CCOc1ccc2cc(C(=O)NCCC(=O)N(C)C)[nH]c2c1,-15.97
CN(Cc1n[nH]c2c1CCC2)C(=O)CCc1cc2n(n1)CCCNC2,0.5721
CCN(CCO)C[C@@H]1CN(C(=O)c2sc3ccccc3c2C)C[C@@H]1CO,-18.48
Cc1ncsc1CN1C[C@H](NC(=O)C2CCOCC2)[C@@H](C(C)C)C1,-13.73
CN(C)c1ncc2c(O)nc(C3CCCNC3)cc2n1 (centres unmarked),10.57
CCn1c(C2CCCN(Cc3ccc4ccccc4n3)C2)nn(C)c1=O (centres unmarked),1.057
O=c1n(Cc2ccccn2)nc(C2CCNCC2)n1Cc1ccccc1,13.2
COc1cc(NCCNC(=O)c2ccc3[nH]ccc3c2)cc(OC)c1,1.549
O=C(Cn1cc(C(=O)O)ccc1=O)Nc1cc(F)ccc1F,10.85 & -1.521
CN(Cc1ccccc1)C(=O)CN1CCOC(Cn2cncn2)C1 (centres unmarked),2.069
O=C(c1[nH]nc(C2CC2)c1Cl)N1CCCC1,75.84
O=C(O)C(F)(F)F.O=C(O)C(F)(F)F.c1cncc(CN2CCc3c(nnn3CC3CC3)C2COCC2CC2)c1 (centres unmarked),-4.317
C[C@@H]1CN(C(=O)c2ccc(C#N)nc2)CC[C@@]1(O)C1CCOCC1,20.15
O=C(O)C(F)(F)F.O=C(O)C(F)(F)F.c1ccc(O[C@@H]2CO[C@@]3(CCCN(CC4CCOCC4)C3)C2)nc1,-9.43 & -10.62
Cn1ncc2c(NC3CN4CCC3CC4)nc(-c3ccncc3)nc21 (centres unmarked),-27.12
CC(=O)N(Cc1noc(C)n1)C1CCN(Cc2ncc(C(C)C)o2)C1 (centres unmarked),-35.1
Cc1ccccc1CC(=O)NCCNc1nccc(C(F)(F)F)n1,27.15 & 35.05
CCc1noc(CN2CCCC2c2noc(C3CC3)n2)n1 (centres unmarked),-0.5068
CN(C)C(=O)CN(C)C(=O)c1csc(Br)c1,8.187
COCCCn1ccc(NC(=O)NCCc2cccnc2)n1,-12.64
Cl.O=C(Nc1nc2c(s1)CNCC2)NC1CCCC1,-0.001246
CCOc1ccc(NC(C)=O)cc1S(=O)(=O)Nc1nccs1,-24.09
[H][C@]12CN(Cc3c[nH]nc3-c3ccccc3)C[C@]1([H])N(CCOC)C(=O)CO2,-3.478
CC(O)CN1CCN(Cc2coc(-c3ccccc3)n2)CC1 (centres unmarked),-32.69
CN(C)C(=O)CN1CC=C(c2cnn(Cc3ccccc3)c2)CC1,4.344
c1cc(C2CCN(Cc3ccc4c(c3)OCO4)CC2)ccn1,-5.464
CC(C)c1cc2c(O)nc(CSCC(=O)O)nc2s1,-5.392
O=S(=O)(NC(CO)Cc1c[nH]c2ccccc12)c1cncc(F)c1 (centres unmarked),-0.9375
CCOc1ccc(Cl)c(C(=O)N2CCN(CCO)CC2)n1,-12.84
CN(Cc1noc(C2CC2)n1)C1CCN(CCc2cccs2)C1 (centres unmarked),11.52
N#CCCN(CC1CC1)S(=O)(=O)c1cccc(Cl)c1,-15.21
CC(C(=O)Nc1ccnn1C(C)C)N1CCCN(c2nccs2)CC1 (centres unmarked),-27.2
NS(=O)(=O)c1ccc(CC(=O)N2CCCC(n3cccn3)C2)cc1 (centres unmarked),18.39
Cc1nnc2n1CCN(C(=O)c1cc(Cl)c(Cl)n1C)C2,15.5
COC[C@]1(O)CCN(C(=O)c2ccc(CN(C)C)o2)CC1(C)C,-0.9285
O=C(Nc1ccc(-n2ccnc2)c(F)c1)C1CCN(C(=O)C2CC2)CC1,-3.625
O=C(NC1CC1)C1=CC2(CCN(CC3CC3)CC2)c2ccccc21.O=C(O)C(F)(F)F,5.76
CN(C)c1nc2c(c(NCc3cc(O)ncn3)n1)CCCC2,1.284
CCc1nc(CN(C)C2CCN(CC(F)(F)F)C2)no1 (centres unmarked),-6.66
O=C(CCCn1cncn1)N1CCC2(CCCN(C3CCCC3)C2=O)C1 (centres unmarked),-12.68
CC(C)=CCN1CCN(Cc2cc(C)n[nH]2)CC1CCO (centres unmarked),0.7719
[H][C@@]12CCN(Cc3ccc4c(c3)OCO4)C[C@@]1([H])O[C@@H](c1noc(C)n1)C2,-4.477
CNC(=O)NC(=O)CSC(C)c1ccccc1F (centres unmarked),5.451
CSCCc1c(-c2ccccc2)ncn1CC(C)(C)N1CCCC1,6.032
CCC(Nc1nc(CCN)nc2ccccc12)c1cc(C)ccn1 (centres unmarked),12.36
Cc1[nH]c2c(F)cccc2c1CC(=O)NCCCc1csc(N)n1,-6.055 & 0.06717
[H][C@]12CN(C(C)=O)CCN1C(=O)N(Cc1ccc(F)cc1)C2,18.92
Cc1cc(=O)n(CC(=O)Nc2cccc(Cl)c2)nc1C,-0.2501 & 0.9912
Cc1cc(N(C)Cc2snnc2C)nc(-c2cccnc2)n1,6.06
O=C(CC1CCc2ccccc21)NCCSc1ccccn1 (centres unmarked),-38.55
Cc1cc(CC(C)Nc2nc(-c3cccnc3)nc3c2CNC3)[nH]n1 (centres unmarked),3.749
Cc1ccnc(NC(=O)C(C)Cn2cncn2)c1 (centres unmarked),-20.35
Cn1cnc2c1C(COCC1CCOCC1)CN(Cc1ccccn1)C2.O=C(O)C(F)(F)F.O=C(O)C(F)(F)F.O=C(O)C(F)(F)F (centres unmarked),-30.8
Cn1cc(S(=O)(=O)Nc2c(F)cccc2N2CCCC2)cn1,-4.728
O=C(O)C(F)(F)F.[H][C@@]12OCCN(Cc3csc(C)n3)[C@@]1([H])CC[C@H]2OCC(=O)N(C)C,-43.04
CC(C)n1cnnc1CN(C)C(=O)c1ccccc1N1CCOCC1,4.693
CN(C)CCNCCC(Cc1ccccc1)C1CCOC(C)(C)C1.O=C(O)C(=O)O (centres unmarked),-30.23
Cc1ccc(C(=O)N2CCOC(c3nc(-c4ncccn4)no3)C2)cc1 (centres unmarked),6.237
Cc1ccc(N2CCCC(NCC(=O)Nc3cc(C)no3)C2)nn1 (centres unmarked),-13.31
COc1ccccc1CN1CC(OC)CN(C(=O)OCC(C)C)CC1=O (centres unmarked),8.822
O=C(c1cc(-c2cccs2)cs1)N1CCSCC1,45.82
Cc1cnc(NC(=O)c2ccc(C3CCCN3CC(C)C)s2)s1 (centres unmarked),3.492 & 5.277
COC(=O)c1cc(C(=O)N2CCCCCC2)n(-c2ccccc2)n1,-12.57
Cc1ncc(-c2nc3cc(S(=O)(=O)N4CCCC4)ccc3n2C)cn1,8.013
CC(C)(C(=O)NCCCC(N)=O)c1cccc(Br)c1,-3.909
[H][C@@]12CS(=O)(=O)C[C@]1([H])N(Cc1ccc(CC)cc1)CCN2C(=O)C(C)C,-0.7718
CC(NC(=O)Cc1ccccc1F)(C(N)=O)c1cccc(Cl)c1 (centres unmarked),-5.965
Cc1ccc(S(N)(=O)=O)cc1C(=O)N1CCc2c(ncnc2N(C)C)C1,-21.87
CCCNC(=O)Cn1nc(C(C)C)c2cnn(C(C)(C)C)c2c1=O,-16.35
O=C(c1cccc(F)c1)N1C[C@@H](CN2CCCCC2)[C@@H](CO)C1,-21.19 & 1.033
Cn1ncc2c1C(COCC1CC1)CN(S(=O)(=O)C1CC1)C2 (centres unmarked),-4.38
Cc1ccc(S(=O)(=O)Nc2ccc(N3CCSCC3)c(C(=O)O)c2)s1,-11.72

Some entries from above, unchanged:

| compound | percent effect |
|---|---|
| `O=C(O)C(F)(F)F.[H][C@@]12OCCN(Cc3csc(C)n3)[C@@]1([H])CC[C@H]2OCC(=O)N(C)C` | -43.04 |
| `COCCCn1ccc(NC(=O)NCCc2cccnc2)n1` | -12.64 |
| `[H][C@]12CN(C(C)=O)CCN1C(=O)N(Cc1ccc(F)cc1)C2` | 18.92 |
| `O=C(O)C(F)(F)F.[H][C@@]12CCN(Cc3ccco3)C[C@]1([H])[C@@H](CNC(=O)c1ccsc1)OC2` | -8.897 |
| `CC(O)CN1CCN(Cc2coc(-c3ccccc3)n2)CC1` (centres unmarked) | -32.69 |

Source: ChEMBL document CHEMBL3988442, “University of Dundee, Small-Polar-MMV Screening Library” (2021).